Our source for the binding values is paper PMC11005723, “Development of Complementary Photo‐arginine/lysine to Promote Discovery of Arg/Lys hPTMs Interactomes” (Advanced Science, 2024).

Chains of the proteins cited; added tags and fusions are not shown.
UniProt O15047: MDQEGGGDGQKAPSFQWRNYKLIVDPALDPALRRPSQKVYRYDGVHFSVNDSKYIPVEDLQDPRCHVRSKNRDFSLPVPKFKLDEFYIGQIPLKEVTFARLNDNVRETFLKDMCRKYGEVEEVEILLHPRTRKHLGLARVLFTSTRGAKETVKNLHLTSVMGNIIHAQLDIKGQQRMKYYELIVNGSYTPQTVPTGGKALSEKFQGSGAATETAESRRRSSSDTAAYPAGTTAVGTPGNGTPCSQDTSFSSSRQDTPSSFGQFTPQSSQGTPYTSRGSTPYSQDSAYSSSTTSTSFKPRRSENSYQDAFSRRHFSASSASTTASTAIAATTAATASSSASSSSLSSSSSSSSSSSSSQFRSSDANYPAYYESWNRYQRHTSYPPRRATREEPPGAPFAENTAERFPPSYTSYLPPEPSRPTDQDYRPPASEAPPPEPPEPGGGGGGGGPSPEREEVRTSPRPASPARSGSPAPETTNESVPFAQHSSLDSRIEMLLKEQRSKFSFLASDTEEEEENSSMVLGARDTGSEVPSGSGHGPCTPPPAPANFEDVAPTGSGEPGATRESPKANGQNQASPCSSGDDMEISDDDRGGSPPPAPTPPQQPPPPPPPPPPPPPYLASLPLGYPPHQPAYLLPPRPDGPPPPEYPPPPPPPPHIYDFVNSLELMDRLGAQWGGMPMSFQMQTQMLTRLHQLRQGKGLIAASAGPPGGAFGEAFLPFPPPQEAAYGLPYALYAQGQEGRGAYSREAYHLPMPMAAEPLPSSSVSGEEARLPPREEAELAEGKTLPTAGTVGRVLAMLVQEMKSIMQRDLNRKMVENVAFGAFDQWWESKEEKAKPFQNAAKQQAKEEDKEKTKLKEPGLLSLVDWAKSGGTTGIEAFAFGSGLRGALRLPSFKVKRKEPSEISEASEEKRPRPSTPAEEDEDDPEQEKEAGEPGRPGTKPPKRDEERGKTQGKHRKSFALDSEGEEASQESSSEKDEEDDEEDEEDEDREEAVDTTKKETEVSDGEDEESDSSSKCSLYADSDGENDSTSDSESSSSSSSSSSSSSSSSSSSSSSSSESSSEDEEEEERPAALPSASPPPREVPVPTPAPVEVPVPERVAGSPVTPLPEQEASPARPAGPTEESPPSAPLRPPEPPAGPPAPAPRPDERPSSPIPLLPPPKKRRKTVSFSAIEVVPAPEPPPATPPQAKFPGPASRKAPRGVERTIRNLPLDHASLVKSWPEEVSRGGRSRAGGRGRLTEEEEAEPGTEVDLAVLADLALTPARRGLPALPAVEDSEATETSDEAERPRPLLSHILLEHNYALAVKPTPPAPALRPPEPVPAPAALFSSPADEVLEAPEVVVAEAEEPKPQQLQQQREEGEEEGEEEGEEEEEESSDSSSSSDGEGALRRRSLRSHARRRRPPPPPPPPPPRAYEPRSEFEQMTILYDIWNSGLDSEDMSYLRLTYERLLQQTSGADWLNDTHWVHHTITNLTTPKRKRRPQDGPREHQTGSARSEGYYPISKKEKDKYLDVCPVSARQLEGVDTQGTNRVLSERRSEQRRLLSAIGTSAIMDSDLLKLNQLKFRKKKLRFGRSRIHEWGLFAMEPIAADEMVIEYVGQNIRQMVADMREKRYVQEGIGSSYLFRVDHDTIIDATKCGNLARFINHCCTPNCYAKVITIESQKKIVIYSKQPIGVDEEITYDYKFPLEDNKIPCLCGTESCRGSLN
UniProt Q969R5: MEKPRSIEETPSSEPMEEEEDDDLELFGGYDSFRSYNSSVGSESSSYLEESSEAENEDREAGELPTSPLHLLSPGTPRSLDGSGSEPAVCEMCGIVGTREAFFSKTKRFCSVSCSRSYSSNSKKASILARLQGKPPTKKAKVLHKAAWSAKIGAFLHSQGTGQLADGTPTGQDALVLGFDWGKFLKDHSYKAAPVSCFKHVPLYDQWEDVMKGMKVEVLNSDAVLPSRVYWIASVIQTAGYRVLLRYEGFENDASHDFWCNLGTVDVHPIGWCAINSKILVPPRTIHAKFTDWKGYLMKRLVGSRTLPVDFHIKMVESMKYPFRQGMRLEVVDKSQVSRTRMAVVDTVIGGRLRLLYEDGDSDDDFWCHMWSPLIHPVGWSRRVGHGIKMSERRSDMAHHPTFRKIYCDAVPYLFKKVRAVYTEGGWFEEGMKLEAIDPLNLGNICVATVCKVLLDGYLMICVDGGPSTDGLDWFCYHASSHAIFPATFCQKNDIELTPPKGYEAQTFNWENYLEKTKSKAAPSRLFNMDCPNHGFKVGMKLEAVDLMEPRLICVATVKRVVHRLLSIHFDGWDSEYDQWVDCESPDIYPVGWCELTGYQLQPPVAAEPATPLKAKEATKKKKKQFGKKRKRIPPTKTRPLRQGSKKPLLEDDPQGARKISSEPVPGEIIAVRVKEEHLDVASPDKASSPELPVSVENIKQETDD

These are yes or no findings as the source states them, for the method shown. Binding seen in cells or lysates may run through a third protein. A yes stands for co-enrichment or nearness to the bait. Other partners may have been found.

Common to all, as to experiment: affinity purification with mass spectrometry; SILAC; 10 µM biotinylated diazirine peptide probes with heavy or light HEK293T nuclear lysate (0.5 mg/mL), 4 °C 1 h, 365 nm UV 30 min on ice, mixed, denatured in SDS, streptavidin agarose, washes with 1% SDS and 4 M urea, LC-MS/MS; only the target purified
For one assay, the target named is H3R2 (probe 3).
A further assay deals with T1, H4K5me (probe 6).
T1 sequence (peptide, photo-arginine R(dz) at 3; monomethyl-lysine at 5; K(biotin) at 15): SGRGKGGKGLGKGGK

In the next assay the target is T2, H4K5me2 (probe 7).
T2 sequence (peptide, photo-arginine R(dz) at 3; dimethyl-lysine at 5; K(biotin) at 15): SGRGKGGKGLGKGGK

For “SETD1A (from UniProt O15047 1-1707) (enzyme)”, the binding entry in the assay with H3R2 (probe 3) is “binds”. Consider “Lethal(3)malignant brain tumor‐like protein 2 (L3MBTL2) (from UniProt Q969R5 1-705)”, for which the binding result with H4K5me (probe 6) and in the assay with H4K5me2 (probe 7) was “binds” in each case.
